From the supplement of paper PMC10849652
The other results are listed elsewhere or left out.

Amino acid sequences for entries named in this document (tags omitted). A change or cut given only in a name is not applied to a line headed by its entry.
UniProt Q9NYL9: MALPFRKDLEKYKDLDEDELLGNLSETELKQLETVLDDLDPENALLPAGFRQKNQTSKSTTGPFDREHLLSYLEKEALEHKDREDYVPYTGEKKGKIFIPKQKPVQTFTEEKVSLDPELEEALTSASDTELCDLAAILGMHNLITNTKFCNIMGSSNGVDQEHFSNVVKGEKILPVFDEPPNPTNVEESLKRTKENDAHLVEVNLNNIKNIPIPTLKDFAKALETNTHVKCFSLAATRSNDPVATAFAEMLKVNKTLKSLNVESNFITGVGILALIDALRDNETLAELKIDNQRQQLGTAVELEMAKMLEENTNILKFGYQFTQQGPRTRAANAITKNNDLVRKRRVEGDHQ
UniProt Q5JTV8: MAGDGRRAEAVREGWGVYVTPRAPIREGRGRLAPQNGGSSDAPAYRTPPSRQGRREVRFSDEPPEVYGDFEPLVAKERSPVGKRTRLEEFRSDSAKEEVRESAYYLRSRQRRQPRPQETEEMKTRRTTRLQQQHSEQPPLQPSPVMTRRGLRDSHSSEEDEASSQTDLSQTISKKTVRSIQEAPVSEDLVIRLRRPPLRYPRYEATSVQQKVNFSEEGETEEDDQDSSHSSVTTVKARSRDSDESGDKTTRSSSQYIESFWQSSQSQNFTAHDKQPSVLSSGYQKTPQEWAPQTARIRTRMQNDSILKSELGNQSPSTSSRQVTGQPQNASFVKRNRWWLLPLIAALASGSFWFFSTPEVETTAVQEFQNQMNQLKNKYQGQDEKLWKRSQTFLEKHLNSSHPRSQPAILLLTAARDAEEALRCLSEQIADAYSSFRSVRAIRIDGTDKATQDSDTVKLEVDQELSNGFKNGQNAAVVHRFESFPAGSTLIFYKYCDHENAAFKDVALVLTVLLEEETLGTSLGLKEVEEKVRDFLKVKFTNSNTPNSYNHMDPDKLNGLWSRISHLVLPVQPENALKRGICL
UniProt Q13625: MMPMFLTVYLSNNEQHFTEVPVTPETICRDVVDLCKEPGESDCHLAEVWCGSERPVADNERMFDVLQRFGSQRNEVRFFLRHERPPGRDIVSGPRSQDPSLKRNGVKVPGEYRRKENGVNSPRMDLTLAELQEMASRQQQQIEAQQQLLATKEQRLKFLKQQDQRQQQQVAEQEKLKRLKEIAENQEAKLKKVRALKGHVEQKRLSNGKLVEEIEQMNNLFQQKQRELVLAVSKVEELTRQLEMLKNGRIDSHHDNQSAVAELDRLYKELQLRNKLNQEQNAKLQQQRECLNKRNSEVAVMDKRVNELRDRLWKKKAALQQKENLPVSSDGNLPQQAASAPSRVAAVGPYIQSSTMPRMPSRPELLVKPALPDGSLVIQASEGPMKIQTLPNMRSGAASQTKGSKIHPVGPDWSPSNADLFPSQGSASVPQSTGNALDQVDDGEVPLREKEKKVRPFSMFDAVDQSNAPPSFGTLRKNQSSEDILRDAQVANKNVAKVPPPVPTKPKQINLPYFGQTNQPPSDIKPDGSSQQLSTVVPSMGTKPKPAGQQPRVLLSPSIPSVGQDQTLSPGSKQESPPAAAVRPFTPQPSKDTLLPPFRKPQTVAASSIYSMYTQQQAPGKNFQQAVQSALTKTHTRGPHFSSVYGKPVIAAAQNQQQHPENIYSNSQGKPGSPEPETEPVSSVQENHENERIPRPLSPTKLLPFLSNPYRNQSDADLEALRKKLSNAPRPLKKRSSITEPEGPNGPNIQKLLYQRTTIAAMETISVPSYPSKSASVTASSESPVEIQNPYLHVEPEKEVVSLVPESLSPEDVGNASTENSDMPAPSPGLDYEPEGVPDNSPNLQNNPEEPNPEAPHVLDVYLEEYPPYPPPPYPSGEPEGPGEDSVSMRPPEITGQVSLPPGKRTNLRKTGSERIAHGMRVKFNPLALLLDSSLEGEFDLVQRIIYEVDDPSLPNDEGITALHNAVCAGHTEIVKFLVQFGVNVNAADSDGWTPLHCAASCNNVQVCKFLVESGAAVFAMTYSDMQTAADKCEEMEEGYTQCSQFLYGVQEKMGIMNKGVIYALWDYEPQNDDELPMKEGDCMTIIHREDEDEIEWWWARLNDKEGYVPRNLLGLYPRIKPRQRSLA
UniProt P09493, whole entry, looked up: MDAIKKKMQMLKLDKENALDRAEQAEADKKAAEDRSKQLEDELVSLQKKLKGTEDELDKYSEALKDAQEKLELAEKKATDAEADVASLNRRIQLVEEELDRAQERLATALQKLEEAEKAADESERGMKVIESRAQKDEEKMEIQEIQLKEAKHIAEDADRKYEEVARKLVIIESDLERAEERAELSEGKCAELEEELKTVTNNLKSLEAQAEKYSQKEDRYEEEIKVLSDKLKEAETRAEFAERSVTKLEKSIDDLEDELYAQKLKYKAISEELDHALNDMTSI
UniProt P67936, whole entry, looked up: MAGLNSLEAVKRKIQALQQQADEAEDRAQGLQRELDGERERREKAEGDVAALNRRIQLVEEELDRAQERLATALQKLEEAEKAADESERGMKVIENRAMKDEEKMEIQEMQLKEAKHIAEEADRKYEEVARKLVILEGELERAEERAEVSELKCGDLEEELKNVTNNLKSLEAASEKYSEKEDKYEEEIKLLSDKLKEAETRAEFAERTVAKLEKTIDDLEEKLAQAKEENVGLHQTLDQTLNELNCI
UniProt Q6ZXV5: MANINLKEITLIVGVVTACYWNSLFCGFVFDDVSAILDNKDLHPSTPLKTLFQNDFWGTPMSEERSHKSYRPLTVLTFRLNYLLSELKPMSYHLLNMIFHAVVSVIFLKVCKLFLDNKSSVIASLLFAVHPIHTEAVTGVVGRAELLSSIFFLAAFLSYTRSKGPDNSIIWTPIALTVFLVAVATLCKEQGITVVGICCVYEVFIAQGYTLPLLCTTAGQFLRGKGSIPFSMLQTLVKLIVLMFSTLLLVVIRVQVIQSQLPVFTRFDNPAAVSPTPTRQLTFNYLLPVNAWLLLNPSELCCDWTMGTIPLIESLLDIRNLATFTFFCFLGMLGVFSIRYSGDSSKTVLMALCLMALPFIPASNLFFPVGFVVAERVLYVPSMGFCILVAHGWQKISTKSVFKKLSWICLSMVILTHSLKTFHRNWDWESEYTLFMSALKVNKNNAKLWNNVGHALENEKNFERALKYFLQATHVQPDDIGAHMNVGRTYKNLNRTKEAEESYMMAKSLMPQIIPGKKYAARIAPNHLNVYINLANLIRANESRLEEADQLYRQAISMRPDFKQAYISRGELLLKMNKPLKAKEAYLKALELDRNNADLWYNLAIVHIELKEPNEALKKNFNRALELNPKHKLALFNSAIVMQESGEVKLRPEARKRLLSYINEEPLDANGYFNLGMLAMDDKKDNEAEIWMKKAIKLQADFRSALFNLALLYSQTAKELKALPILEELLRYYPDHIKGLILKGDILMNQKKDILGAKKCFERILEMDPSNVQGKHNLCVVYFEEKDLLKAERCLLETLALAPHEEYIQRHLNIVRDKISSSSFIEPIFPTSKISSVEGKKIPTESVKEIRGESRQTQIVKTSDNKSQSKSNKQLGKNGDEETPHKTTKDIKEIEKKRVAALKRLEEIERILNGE
UniProt O94842: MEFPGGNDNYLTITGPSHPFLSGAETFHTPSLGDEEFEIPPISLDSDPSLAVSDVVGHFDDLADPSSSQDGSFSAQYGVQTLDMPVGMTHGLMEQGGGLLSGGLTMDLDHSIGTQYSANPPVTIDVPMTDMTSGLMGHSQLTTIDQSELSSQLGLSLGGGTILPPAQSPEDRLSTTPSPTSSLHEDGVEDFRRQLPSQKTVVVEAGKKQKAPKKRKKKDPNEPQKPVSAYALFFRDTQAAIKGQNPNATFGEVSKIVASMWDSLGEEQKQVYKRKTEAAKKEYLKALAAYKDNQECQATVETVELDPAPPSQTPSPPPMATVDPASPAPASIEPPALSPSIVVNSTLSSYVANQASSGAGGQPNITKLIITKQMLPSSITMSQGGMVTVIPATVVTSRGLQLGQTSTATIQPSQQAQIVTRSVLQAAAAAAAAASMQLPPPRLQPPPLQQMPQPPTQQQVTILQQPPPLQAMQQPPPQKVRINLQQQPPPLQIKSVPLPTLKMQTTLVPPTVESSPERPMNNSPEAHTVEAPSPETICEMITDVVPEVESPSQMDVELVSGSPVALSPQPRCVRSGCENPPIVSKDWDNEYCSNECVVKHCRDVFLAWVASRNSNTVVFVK
UniProt P28908: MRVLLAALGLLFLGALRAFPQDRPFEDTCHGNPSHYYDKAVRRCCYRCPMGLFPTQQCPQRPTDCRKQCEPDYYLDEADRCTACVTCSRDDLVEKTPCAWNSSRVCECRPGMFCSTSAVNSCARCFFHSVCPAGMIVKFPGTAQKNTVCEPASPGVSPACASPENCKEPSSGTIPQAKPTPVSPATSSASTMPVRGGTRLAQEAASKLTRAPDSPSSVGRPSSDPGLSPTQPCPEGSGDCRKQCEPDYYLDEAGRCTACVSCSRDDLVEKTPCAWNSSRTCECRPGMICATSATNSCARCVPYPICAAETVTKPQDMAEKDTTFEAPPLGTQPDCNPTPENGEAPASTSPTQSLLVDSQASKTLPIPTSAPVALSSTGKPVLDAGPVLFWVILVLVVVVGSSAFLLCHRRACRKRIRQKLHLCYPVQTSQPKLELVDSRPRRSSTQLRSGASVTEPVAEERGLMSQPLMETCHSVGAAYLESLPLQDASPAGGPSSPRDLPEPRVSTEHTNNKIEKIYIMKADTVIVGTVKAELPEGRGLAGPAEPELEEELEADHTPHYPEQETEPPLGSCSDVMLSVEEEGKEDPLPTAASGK
UniProt O94886: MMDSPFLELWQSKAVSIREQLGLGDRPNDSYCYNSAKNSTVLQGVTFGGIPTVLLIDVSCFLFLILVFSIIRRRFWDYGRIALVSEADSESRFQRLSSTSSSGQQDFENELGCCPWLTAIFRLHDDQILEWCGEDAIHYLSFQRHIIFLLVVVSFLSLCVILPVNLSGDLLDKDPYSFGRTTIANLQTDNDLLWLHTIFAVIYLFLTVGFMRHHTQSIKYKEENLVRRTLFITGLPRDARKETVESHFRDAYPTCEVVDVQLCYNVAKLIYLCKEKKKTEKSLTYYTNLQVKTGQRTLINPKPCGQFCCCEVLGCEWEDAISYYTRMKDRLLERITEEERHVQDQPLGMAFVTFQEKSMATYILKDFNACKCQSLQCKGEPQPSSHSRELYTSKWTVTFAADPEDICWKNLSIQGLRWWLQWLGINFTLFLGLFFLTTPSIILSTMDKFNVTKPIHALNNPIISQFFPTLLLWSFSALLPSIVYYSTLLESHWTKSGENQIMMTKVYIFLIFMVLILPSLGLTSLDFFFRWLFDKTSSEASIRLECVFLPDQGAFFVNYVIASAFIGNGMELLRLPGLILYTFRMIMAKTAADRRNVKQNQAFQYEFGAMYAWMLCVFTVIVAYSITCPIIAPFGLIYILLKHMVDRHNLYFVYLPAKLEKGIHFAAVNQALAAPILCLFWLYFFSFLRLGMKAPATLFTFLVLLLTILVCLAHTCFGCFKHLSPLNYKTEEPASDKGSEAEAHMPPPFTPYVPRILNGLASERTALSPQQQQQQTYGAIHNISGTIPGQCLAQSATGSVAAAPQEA
UniProt Q13472: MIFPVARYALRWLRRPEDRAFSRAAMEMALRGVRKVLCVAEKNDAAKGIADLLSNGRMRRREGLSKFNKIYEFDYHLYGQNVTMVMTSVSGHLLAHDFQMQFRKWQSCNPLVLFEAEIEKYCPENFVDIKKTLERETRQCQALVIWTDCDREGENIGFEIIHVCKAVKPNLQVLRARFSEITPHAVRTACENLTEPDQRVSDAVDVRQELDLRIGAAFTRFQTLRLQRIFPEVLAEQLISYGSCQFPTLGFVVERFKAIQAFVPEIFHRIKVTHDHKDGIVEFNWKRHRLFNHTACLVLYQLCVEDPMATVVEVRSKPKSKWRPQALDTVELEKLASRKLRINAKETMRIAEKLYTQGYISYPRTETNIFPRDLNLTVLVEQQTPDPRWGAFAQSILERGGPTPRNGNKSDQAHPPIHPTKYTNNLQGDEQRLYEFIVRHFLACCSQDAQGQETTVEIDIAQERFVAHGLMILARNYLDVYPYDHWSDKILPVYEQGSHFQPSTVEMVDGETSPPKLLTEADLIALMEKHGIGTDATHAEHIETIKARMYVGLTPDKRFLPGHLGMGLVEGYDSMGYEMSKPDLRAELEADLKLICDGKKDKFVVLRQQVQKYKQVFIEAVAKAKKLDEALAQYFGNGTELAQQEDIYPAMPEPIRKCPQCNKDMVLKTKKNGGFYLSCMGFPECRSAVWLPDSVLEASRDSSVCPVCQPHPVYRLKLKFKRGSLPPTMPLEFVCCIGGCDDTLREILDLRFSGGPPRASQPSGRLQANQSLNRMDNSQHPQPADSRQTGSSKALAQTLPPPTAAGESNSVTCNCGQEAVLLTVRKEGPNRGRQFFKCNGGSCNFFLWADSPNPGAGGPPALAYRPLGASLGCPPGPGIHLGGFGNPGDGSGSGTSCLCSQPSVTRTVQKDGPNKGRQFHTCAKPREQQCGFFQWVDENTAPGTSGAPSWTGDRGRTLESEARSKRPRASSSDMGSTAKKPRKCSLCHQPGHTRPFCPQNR

Compound: CC1=C(C(CC(=O)N1)C2=CC=C(C=C2)C(F)(F)F)C(=O)NC3=C(C=C4C(=C3)C=NN4)F
Experiment: log2 fold change, soluble protein after heating vs DMSO (PISA); higher = thermal stabilisation; K562 lysate, 10 uM; active = over 0.2 and 3.5 SD of the protein, either way, in both replicates (recomputed)
In short: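 K562 pellets were dounce-homogenised in PBS pH 7.4 containing 1 mM MgCl2, and the crude extract, at 1 mg/mL protein, was exposed to 10 μM compound for 30 min. Aliquots were heated for 3 min across 48°C-58°C, pooled, brought to 0.5% NP-40 at 4°C and spun at 21,000xg for 90 min, with the supernatant taken as soluble protein. TMTpro 16plex LC-MS/MS with equalised channel sums quantified that protein. Values are log-two fold changes in thermal stability relative to solvent controls, taken from duplicates.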

Row | Target | log2 fold change
1 | TPI1 (UniProt P60174) | inactive: -0.033
2 | TMOD3 (UniProt Q9NYL9) | inactive: -0.017
3 | TOR1AIP1 isoform 3 (UniProt Q5JTV8) | inactive: 0.031
4 | TNPO1 (UniProt Q92973) | inactive: 0.003
5 | TPP2 (UniProt P29144) | inactive: -0.013
6 | TOR1AIP2 (UniProt Q8NFQ8) | inactive: -0.021
7 | TP53BP1 isoform 2 (UniProt Q12888) | inactive: 0.011
8 | TP53BP2 isoform 3 (UniProt Q13625) | inactive: 0.015
9 | TMEM245 (UniProt Q9H330) | inactive: -0.04
10 | TPM1 isoform 4 (UniProt P09493) | inactive: -0.011
11 | TPM4 (UniProt P67936) | inactive: -0.038
12 | TMTC3 (UniProt Q6ZXV5) | inactive: 0.011
13 | TOP2B isoform 2 (UniProt Q02880) | inactive: -0.015
14 | TOP1 (UniProt P11387) | inactive: -0.003
15 | TOX4 (UniProt O94842) | inactive: 0.024
16 | TNFRSF8 (UniProt P28908) | inactive: -0.002
17 | TMEM63A (UniProt O94886) | inactive: 0.014
18 | TPP2 (UniProt Q5VZU9) | inactive: 0.056
19 | TMEM199 (UniProt Q8N511) | inactive: 0.001
20 | TPD52L2 isoform 7 (UniProt O43399) | inactive: 0.023
21 | TOP2A isoform 4 (UniProt P11388) | inactive: -0.015
22 | TOP3A (UniProt Q13472) | inactive: 0.083

Reprinted at random: two records from the list.
Row | Target | log2 fold change
6 | TOR1AIP2 (UniProt Q8NFQ8) | inactive: -0.021
17 | TMEM63A (UniProt O94886) | inactive: 0.014
